Results taken from the supplement of paper PMC10849652.
Some of the results follow.

Protein sequences, listed by entry. Tags and fused reporters are not part of them. Lines headed by an entry give the natural chain unless they say otherwise; changes in a name come on top.
UniProt Q5JTD0: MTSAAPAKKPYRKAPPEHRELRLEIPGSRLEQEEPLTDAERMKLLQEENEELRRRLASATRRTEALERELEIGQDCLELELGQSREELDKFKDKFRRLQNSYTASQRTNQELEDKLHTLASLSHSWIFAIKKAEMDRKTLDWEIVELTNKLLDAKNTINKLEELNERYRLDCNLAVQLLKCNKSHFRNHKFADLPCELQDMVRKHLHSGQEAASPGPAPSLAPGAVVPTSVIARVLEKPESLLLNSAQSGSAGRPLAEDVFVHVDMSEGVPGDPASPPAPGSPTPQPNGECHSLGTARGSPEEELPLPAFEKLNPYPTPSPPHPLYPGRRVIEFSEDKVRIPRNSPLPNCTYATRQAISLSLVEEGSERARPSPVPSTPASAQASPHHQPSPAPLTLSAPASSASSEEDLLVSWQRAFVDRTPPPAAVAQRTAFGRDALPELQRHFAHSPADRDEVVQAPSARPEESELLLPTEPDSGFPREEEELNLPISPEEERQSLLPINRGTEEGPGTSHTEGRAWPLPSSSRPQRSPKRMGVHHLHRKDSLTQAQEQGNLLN
UniProt P17152: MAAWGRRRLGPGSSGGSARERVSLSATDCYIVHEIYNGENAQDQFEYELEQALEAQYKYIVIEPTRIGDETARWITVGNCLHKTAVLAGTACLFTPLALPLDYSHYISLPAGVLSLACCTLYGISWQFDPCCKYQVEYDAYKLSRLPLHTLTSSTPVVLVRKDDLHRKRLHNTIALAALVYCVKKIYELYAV
UniProt Q99595: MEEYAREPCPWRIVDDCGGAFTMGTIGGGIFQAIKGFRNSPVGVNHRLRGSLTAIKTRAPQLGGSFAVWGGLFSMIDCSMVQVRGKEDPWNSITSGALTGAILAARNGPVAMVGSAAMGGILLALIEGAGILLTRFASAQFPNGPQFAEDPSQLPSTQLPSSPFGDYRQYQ
UniProt Q9UM00: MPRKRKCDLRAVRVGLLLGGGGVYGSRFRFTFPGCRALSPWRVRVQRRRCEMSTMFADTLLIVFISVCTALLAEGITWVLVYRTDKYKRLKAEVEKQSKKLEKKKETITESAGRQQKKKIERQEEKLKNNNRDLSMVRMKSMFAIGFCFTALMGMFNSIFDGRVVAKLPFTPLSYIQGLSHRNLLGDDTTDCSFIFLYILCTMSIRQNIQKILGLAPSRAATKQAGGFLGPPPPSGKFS
UniProt Q13769: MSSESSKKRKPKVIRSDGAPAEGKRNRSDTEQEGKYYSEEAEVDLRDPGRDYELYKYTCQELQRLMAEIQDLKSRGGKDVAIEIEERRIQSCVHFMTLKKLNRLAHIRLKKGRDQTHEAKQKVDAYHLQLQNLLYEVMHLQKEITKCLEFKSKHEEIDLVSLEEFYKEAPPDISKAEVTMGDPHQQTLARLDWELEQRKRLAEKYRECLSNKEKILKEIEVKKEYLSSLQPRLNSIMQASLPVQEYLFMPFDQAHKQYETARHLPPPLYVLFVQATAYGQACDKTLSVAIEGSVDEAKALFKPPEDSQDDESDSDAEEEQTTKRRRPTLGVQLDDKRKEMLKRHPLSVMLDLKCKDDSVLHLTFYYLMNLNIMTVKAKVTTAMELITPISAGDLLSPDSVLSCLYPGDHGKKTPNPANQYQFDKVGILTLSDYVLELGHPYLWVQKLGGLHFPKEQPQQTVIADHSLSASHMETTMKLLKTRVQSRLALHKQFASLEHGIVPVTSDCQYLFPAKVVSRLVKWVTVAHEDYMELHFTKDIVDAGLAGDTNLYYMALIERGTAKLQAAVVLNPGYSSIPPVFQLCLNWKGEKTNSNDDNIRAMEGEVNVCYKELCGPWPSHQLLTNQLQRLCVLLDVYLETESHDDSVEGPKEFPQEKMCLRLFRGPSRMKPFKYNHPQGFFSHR
UniProt Q9BXJ8: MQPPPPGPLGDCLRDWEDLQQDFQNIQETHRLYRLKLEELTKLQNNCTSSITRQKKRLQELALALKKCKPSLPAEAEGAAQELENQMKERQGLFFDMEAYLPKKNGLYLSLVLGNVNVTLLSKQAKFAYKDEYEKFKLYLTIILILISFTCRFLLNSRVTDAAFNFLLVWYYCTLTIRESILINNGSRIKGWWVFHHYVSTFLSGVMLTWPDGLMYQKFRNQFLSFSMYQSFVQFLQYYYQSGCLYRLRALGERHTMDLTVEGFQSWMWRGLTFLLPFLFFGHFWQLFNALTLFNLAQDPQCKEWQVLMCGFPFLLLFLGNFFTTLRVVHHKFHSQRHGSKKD
UniProt Q86UE8, whole entry, looked up: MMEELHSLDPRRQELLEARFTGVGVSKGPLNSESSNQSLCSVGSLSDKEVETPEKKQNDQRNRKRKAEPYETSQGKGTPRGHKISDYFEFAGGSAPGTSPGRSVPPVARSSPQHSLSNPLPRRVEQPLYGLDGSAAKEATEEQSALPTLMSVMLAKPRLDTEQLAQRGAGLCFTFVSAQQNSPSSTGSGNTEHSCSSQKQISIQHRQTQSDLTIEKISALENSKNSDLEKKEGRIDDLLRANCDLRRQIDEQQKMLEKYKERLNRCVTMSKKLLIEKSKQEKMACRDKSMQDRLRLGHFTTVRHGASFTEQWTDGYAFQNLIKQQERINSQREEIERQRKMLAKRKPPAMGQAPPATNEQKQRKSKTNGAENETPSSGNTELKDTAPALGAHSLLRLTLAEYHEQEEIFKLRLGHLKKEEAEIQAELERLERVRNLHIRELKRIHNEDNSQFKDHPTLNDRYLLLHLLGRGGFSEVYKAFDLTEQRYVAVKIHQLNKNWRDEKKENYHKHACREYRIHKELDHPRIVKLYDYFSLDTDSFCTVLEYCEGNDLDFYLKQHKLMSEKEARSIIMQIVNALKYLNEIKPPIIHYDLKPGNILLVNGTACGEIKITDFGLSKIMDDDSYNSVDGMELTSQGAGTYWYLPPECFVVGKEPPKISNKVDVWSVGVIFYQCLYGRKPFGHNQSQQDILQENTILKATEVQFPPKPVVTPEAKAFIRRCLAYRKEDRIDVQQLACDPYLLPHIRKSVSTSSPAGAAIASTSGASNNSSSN
UniProt Q86W42: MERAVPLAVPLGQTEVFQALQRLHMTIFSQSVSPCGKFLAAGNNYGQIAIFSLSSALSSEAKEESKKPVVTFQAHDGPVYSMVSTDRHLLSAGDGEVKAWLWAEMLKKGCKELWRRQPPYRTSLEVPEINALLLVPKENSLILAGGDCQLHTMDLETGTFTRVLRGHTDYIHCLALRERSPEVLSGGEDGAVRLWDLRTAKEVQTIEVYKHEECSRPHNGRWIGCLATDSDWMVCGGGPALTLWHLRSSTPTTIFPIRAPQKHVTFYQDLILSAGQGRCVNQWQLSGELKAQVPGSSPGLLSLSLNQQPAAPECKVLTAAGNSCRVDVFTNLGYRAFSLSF
UniProt Q9HD45: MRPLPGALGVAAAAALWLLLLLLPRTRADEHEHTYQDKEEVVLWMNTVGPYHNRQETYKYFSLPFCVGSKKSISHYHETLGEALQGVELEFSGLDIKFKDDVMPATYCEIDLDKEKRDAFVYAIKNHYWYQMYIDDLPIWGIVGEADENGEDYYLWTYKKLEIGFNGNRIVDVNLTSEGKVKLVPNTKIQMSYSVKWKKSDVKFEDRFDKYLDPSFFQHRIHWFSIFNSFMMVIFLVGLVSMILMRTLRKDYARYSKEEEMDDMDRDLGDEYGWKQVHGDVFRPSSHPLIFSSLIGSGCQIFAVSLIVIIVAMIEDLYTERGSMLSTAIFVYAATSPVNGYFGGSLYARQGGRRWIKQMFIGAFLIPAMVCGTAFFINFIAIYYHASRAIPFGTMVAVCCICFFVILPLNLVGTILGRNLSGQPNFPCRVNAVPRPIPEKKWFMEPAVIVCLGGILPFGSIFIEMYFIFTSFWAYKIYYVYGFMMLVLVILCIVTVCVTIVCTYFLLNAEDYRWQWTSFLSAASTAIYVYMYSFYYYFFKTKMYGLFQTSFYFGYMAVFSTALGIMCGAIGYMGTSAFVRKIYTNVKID
UniProt Q9NQ88: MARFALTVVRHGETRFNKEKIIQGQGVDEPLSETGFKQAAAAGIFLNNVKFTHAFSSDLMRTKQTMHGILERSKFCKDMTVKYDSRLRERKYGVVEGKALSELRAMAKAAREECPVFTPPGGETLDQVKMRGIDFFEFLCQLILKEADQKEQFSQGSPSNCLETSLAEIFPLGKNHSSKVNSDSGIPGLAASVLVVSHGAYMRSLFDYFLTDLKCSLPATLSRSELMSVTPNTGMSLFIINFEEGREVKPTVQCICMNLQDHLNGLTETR
UniProt Q6I9Y2: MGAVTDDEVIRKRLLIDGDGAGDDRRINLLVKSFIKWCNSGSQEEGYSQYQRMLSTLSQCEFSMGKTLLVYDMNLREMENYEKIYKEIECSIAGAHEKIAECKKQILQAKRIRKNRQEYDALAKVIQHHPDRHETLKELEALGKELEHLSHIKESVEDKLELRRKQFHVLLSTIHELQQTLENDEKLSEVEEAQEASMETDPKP
UniProt Q6YHU6: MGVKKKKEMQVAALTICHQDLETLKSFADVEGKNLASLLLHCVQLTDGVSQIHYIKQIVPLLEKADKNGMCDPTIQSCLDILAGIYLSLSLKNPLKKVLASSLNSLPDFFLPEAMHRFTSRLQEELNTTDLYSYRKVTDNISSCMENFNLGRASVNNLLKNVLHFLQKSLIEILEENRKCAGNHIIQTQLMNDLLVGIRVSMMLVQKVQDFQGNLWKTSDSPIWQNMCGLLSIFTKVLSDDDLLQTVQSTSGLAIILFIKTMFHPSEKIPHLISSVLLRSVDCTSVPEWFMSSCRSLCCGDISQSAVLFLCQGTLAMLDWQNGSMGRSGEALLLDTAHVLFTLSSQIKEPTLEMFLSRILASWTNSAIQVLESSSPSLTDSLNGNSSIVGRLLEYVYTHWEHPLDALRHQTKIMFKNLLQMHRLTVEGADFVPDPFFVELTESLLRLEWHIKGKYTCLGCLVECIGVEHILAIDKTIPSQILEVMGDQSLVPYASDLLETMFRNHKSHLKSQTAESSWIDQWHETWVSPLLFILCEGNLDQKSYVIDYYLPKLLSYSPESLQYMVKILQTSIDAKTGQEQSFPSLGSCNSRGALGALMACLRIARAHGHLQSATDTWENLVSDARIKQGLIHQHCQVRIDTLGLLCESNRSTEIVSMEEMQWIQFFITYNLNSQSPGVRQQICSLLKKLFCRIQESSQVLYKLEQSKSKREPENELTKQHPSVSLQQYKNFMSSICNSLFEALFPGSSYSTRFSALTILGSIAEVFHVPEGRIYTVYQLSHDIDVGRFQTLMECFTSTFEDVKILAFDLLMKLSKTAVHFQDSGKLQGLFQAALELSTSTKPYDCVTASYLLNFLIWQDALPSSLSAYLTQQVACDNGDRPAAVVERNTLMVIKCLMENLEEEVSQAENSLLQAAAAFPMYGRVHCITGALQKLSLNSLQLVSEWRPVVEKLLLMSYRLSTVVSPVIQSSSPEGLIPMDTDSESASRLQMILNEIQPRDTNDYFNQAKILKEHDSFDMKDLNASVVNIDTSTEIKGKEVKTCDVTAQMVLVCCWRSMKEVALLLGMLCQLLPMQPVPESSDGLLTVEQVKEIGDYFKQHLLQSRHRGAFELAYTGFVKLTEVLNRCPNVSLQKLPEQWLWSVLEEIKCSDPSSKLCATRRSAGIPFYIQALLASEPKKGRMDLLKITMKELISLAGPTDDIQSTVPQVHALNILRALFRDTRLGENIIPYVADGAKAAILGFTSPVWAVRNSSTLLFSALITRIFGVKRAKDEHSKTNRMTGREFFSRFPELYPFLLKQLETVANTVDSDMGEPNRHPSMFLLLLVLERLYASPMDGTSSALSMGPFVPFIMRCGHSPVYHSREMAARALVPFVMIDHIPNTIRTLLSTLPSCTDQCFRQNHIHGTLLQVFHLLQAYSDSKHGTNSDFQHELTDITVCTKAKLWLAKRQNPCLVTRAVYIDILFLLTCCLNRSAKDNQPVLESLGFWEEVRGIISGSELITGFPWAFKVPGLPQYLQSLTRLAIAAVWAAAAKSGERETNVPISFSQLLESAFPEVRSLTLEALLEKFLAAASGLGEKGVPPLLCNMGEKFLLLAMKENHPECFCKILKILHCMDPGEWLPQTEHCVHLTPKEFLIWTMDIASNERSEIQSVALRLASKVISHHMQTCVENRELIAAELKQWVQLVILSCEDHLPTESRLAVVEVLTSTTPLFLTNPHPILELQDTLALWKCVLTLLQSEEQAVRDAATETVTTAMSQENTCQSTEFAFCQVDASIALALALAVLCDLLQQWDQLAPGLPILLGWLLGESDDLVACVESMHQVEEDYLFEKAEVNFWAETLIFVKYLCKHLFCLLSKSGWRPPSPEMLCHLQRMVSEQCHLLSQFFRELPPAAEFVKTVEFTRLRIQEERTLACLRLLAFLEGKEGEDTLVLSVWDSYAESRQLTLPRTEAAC
UniProt P55061, whole entry, looked up: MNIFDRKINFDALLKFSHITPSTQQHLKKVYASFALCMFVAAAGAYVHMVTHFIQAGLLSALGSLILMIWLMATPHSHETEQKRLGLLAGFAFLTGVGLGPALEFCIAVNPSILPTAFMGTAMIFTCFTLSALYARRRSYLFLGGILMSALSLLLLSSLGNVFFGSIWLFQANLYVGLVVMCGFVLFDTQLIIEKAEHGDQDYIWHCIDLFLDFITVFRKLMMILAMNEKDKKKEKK

What was measured:
Assay in all cases: log2 fold change, soluble protein after heating vs DMSO (PISA); higher = thermal stabilisation; K562 lysate, 10 uM; active = over 0.2 and 3.5 SD of the protein, either way, in both replicates (recomputed)
[1] = compound: NCC(=O)Nc1ccc(-n2nc(C(F)(F)F)cc2-c2ccc3c(ccc4ccccc43)c2)cc1
How it was run: (§1)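 Dounce homogenisation of K562 pellets in PBS pH 7.4 with 1 mM MgCl2 produced a crude extract, used at 1 mg/mL protein. Exposure to 10 μM compound lasted 30 min, and aliquots were then heated for 3 min across 48°C-58°C, pooled and brought to 0.5% NP-40 at 4°C. The supernatant after 21,000xg for 90 min was quantified by TMTpro 16plex LC-MS/MS with channel sums equalised. Duplicate values are given as log-two fold change in thermal stability relative to solvent controls.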

vorinostat = compound: O=C(CCCCCCC(=O)Nc1ccccc1)NO [vorinostat]
How it was run: as §1

silmitasertib = compound: O=C(O)c1ccc2c(c1)nc(Nc1cccc(Cl)c1)c1ccncc12 [silmitasertib]
How it was run: as §1

[2] = compound: O=C1NC(=O)C(c2cnc3ccccn23)=C1c1cn2c3c(cc(F)cc13)CN(C(=O)N1CCCCC1)CC2
How it was run: as §1

entospletinib = compound: c1cn2cc(-c3ccc4cn[nH]c4c3)nc(Nc3ccc(N4CCOCC4)cc3)c2n1 [entospletinib]
How it was run: as §1

Target	log2 fold change [1]	log2 fold change (vorinostat)	log2 fold change (silmitasertib)	log2 fold change [2]	log2 fold change (entospletinib)
TMEM186 (UniProt Q96B77)	inactive: 0.019	inactive: 0.063	inactive: -0.088	inactive: 0.07	inactive: -0.009
TIMM44 (UniProt O43615)	inactive: 0.045	active: 0.245	inactive: 0.015	inactive: 0.029	inactive: -0.026
TGM2 (UniProt P21980)	inactive: 0.018	inactive: -0.069	inactive: 0.019	inactive: 0.001	inactive: 0.02
TMEM135 (UniProt Q86UB9)	inactive: 0.022	inactive: -0.031	inactive: 0.022	inactive: -0.018	inactive: -0.021
TJAP1 (UniProt Q5JTD0)	inactive: 0.077	inactive: 0.083	inactive: 0.007	inactive: -0.003	inactive: -0.068
THOP1 (UniProt P52888)	inactive: 0.002	inactive: 0.093	inactive: 0.006	inactive: -0.018	inactive: 0.015
TMEM11 (UniProt P17152)	inactive: -0.011	inactive: -0.067	inactive: 0.083	inactive: 0.077	inactive: 0.055
TIMM17A (UniProt Q99595)	inactive: 0.021	inactive: 0.162	inactive: 0.036	inactive: 0.012	inactive: -0.019
TMED4 (UniProt Q7Z7H5)	inactive: -0.051	inactive: 0.151	inactive: -0.029	inactive: 0.019	inactive: 0.003
TMEM115 (UniProt Q12893)	inactive: -0.002	inactive: 0.049	inactive: 0	inactive: -0.011	inactive: -0.087
TMCO1 (UniProt Q9UM00)	inactive: -0.05	inactive: 0.131	inactive: 0.019	inactive: -0.014	inactive: 0.038
THOC5 (UniProt Q13769)	inactive: 0.012	inactive: -0.077	inactive: 0.011	inactive: 0.008	inactive: -0.009
TMEM120A (UniProt Q9BXJ8)	inactive: 0.111	inactive: 0.187	inactive: 0.182	inactive: -0.051	inactive: 0.068
TLK2 isoform 2 (UniProt Q86UE8)	inactive: 0.019	inactive: -0.24	inactive: 0.057	inactive: 0.118	inactive: -0.135
TMEM126B (UniProt Q8IUX1)	inactive: 0.112	inactive: 0.04	inactive: -0.009	inactive: -0.094	inactive: -0.025
TLK1 isoform 2 (UniProt Q9UKI8)	inactive: 0.001	active: -0.369	inactive: 0.117	inactive: 0.156	inactive: 0.04
THOC6 (UniProt Q86W42)	inactive: 0.068	inactive: 0.051	inactive: 0.025	inactive: 0.03	inactive: 0.006
TM9SF3 (UniProt Q9HD45)	inactive: -0.013	inactive: 0.108	inactive: 0.01	inactive: 0.012	inactive: -0.018
TIGAR (UniProt Q9NQ88)	inactive: -0.098	inactive: 0.005	inactive: 0.065	inactive: -0.114	inactive: -0.129
THOC7 (UniProt Q6I9Y2)	inactive: -0.035	inactive: 0.039	inactive: -0.029	inactive: -0.026	inactive: 0.045
THADA (UniProt Q6YHU6)	inactive: 0.009	active: -0.456	inactive: 0.013	inactive: 0.015	inactive: 0.006
TMBIM6 isoform 2 (UniProt P55061)	inactive: -0.066	inactive: 0.112	inactive: 0	inactive: -0.001	inactive: -0.007
TGFBRAP1 (UniProt Q8WUH2)	inactive: -0.039	active: -0.433	inactive: 0.051	inactive: -0.018	inactive: 0.024
TMEM173 (UniProt Q86WV6)	inactive: -0.063	inactive: 0.081	inactive: 0.032	inactive: 0.032	inactive: -0.021

Full records, quoted from the list:
TMEM135 (UniProt Q86UB9) is listed with log2 fold change [1]: inactive: 0.022; log2 fold change (vorinostat): inactive: -0.031; log2 fold change (silmitasertib): inactive: 0.022; log2 fold change [2]: inactive: -0.018; log2 fold change (entospletinib): inactive: -0.021
TLK1 isoform 2 (UniProt Q9UKI8) is listed with log2 fold change [1]: inactive: 0.001; log2 fold change (vorinostat): active: -0.369; log2 fold change (silmitasertib): inactive: 0.117; log2 fold change [2]: inactive: 0.156; log2 fold change (entospletinib): inactive: 0.04
